Some of the results follow. Further columns of the screen follow, without active or inactive calls. Compounds called inactive in the main read-out are mostly missing here. Potencies come from curve fits of mixed quality, noted in brackets.
assay: IkB Signaling; conditions: ABC-DLBCL IkBa-CBG/CBR dual luciferase ratio (green luciferase fused to IkBa over red control in OCI-Ly3 lymphoma cells), 4 h; measured here: control luc red channel unless noted
In short: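 In this assay, an IκBα–CBG68 fusion accumulates when IKK-driven degradation is blocked; native CBR normalizes for cell number. OCI-Ly3 cells were treated 4 h with compound and doxycycline, then green and red light read after Chroma-Glo addition.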

SMILES | AC50
Nc1nnc(-c2ccco2)s1 | 15.8 µM [rising, partial curve]
Cc1ccc(NC(=O)C(=O)NCC(c2ccc3c(c2)OCO3)N2CCN(C)CC2)cc1C (stereo not given) | 31.6 µM [falling, partial curve, poor fit]
CCOC(=O)c1c(-c2cccs2)csc1NC(=O)COC(=O)c1c(C)noc1C | 10 µM [falling, partial curve]
Cc1ccccc1Cn1c(C)c(CNCCCc2ccccc2)c(C(=O)O)c1C | 20 µM [falling, single point]
Cc1ccccc1Nc1c(-c2c[nH]c3ccccc23)nc2cccc(C)n12 | 0.02 µM [falling, full curve]
Cc1ccc(NC(=O)CCc2nc3cccnc3n2-c2ccccc2)cc1Cl | 15.8 µM [falling, partial curve]
O=c1c2sc3ccccc3c2n(Cc2ccc(Cl)cc2)c(=O)n1Cc1ccco1 | 1.26 µM [falling, full curve, poor fit]
Cc1cccc(NC(=O)Cn2cnc3sc(C)c(S(=O)(=O)N4CCC(C)CC4)c3c2=O)n1 | 0.794 µM [falling, full curve]
Cc1ccc(N(Cc2cccs2)C(=O)c2ccccc2[N+](=O)[O-])cc1 | 31.6 µM [falling, single point]
Fc1ccc(-c2cc3nc(-c4ccccc4)cc(N4CCN(CCN5CCOCC5)CC4)n3n2)cc1 | 1 µM [falling, full curve]
Clc1cccc(-n2ncc3c(NC4CCCCCC4)ncnc32)c1 | 12.6 µM [falling, partial curve]
COc1ccc(CCNC(=O)CCCCn2c(=O)c3ccccc3n(Cc3ccccc3)c2=O)cc1OC | 39.8 µM [falling, single point]
O=C(NCc1ccccc1)c1cccc(OCC(=O)N2CCN(C(=O)c3ccco3)CC2)c1 | 20 µM [falling, partial curve]
CCOC(=O)c1ccc(NC(=O)CSc2ncc(S(=O)(=O)c3ccc(C)c(Cl)c3)c(=O)[nH]2)cc1 | 20 µM [falling, partial curve]
CCCCN(C)c1nnc(NC(=O)Nc2ccc(Br)c(C)c2)s1 | 20 µM [falling, single point]
CCOc1ccc(NC(=O)Cn2cc(C(=O)c3ccc(C)cc3)c(=O)c3cc4c(cc32)OCO4)cc1 | 10 µM [falling, partial curve]
Brc1cccc(-c2nnn3c2nc(N2CCCCC2)c2ccccc23)c1 | 2 µM [falling, full curve]
CCn1c2c(c(=O)n3ncc(C(=O)Nc4ccc(Cl)cc4C)c13)CN(Cc1ccc(OC)cc1)CC2 | 15.8 µM [falling, partial curve]
Cc1ccc2nc3c(c(Nc4ccc(C)c(C)c4)c2c1)CCC3 | 20 µM [falling, partial curve]
O=C(CNS(=O)(=O)c1cccs1)N1CCN(c2ccccc2F)CC1 | 1 µM [falling, partial curve]

Quoted from the listing.
AC50, `CCOC(=O)c1ccc(NC(=O)CSc2ncc(S(=O)(=O)c3ccc(C)c(Cl)c3)c(=O)[nH]2)cc1` reads 20 µM [falling, partial curve]
AC50, `Cc1ccccc1Nc1c(-c2c[nH]c3ccccc23)nc2cccc(C)n12` reads 0.02 µM [falling, full curve]

Following part.

SMILES | AC50
CCCn1c(=O)c2sccc2n2c(CCCC(=O)NC3CCCCC3)nnc12 | 31.6 µM [falling, single point]
COCCCNC(=O)c1ccc(-n2c(-c3ccccc3)cc3c2CCCCC3)cc1 | 12.6 µM [falling, partial curve]
CC(C)N(Cc1cc2ccccc2[nH]c1=O)C(=O)C1CCCCC1 | 7.94 µM [falling, partial curve]
CCc1nonc1NC(=O)c1oc2ccc(Cl)cc2c1C | 0.794 µM [rising, full curve]
CC1=C(C(=O)OC2CCCCCC2)C(c2ccc(Cl)cc2Cl)CC(=O)N1 (stereo not given) | 25.1 µM [falling, single point]
Cc1cc(C)nc(N2CCCC(C(=O)Nc3nc4ccc(S(C)(=O)=O)cc4s3)C2)n1 (stereo not given) | 20 µM [falling, partial curve]
COc1ccc(CNC(=O)CC2Oc3ccc(C)cc3NC2=O)cc1 (stereo not given) | 3.16 µM [falling, partial curve, poor fit]
COC(=O)c1cc2oc3ccccc3c2n1CC(=O)Nc1ccc(F)c(Cl)c1 | 0.1 µM [falling, full curve]
CCOc1ccc(CCNC(=O)c2nn(C)c3c2CSc2ccc(C)cc2-3)cc1OCC | 5.01 µM [falling, full curve]
Cc1cccc(Cn2c(CN3CCCC(C)C3)nc3c2c(=O)n(C)c(=O)n3C)c1 (stereo not given) | 2 µM [falling, partial curve]
CCC(=O)Nc1ccc(CC)cc1-c1nc2ccccc2n(CC(=O)c2ccc(OC)cc2)c1=O | 15.8 µM [falling, partial curve]
CC1CCCCN1C(=O)CN1CCSc2ccccc21 (stereo not given) | 1.58 µM [falling, full curve]
CCc1nonc1NC(=O)c1oc2cc(C)c(C)cc2c1C | 0.251 µM [rising, full curve]
Cc1c(Cl)cccc1NC(=O)c1oc2ccc(S(=O)(=O)N3CCC4(CC3)OCCO4)cc2c1C | 20 µM [falling, partial curve]
CCc1cccc(-n2c(=O)c3cccnc3n2CC(=O)Nc2ccc(OC)c(Cl)c2)c1 | 0.631 µM [rising, full curve, poor fit]
COc1ccc(C(=O)Oc2ccc(C(c3c(C)[nH][nH]c3=O)c3c(C)[nH][nH]c3=O)cc2)cc1 | 31.6 µM [falling, partial curve, poor fit]
COc1cccc(-n2c(SCC(N)=O)nc3c(oc4ccccc43)c2=O)c1 | 3.16 µM [rising, partial curve, poor fit]
O=C(CSCc1ccc(Cl)cc1)NCC1CCCO1 (stereo not given) | 1.26 µM [rising, partial curve] [measured here: IkB-luc green channel]
COc1cc(C(=O)N2CCN(c3cccc(C)c3C)CC2)cc(OC)c1OC | 3.16 µM [rising, partial curve] [measured here: IkB-luc green channel]
O=C1NC(c2ccccc2)C(C(=O)c2cccs2)=C1O (stereo not given) | 12.6 µM [falling, partial curve]
